The text below walks through data of publication PMC5940383, “SMAR1 inhibits Wnt/β-catenin signaling and prevents colorectal cancer progression” (Oncotarget, 2018).

The target of this assay is SMAR1 protein (UniProt Q8VBU8). Kind of assay: ITC; MicroCal iTC200, room temperature; peptides with SMAR1 protein; both purified. (Isothermal titration calorimetry measures the heat released or taken up as one component is titrated into another.)

These are yes or no findings as the source states them, for the method shown. Some binding calls cover weakened binding; strength is not graded here.

With ATATVNAIRGSVTPAVSQFN [AT-01C], the binding result is given as “binds”. On to NAIRGSVTPAVSQFN [AT-01D], for which the binding result was “binds”.
